{
  "sequences": {"note": "Chains of the proteins cited; added tags and fusions are not shown. Lines headed by an entry give the natural chain unless they say otherwise; changes in a name come on top.", "UniProt P02751": "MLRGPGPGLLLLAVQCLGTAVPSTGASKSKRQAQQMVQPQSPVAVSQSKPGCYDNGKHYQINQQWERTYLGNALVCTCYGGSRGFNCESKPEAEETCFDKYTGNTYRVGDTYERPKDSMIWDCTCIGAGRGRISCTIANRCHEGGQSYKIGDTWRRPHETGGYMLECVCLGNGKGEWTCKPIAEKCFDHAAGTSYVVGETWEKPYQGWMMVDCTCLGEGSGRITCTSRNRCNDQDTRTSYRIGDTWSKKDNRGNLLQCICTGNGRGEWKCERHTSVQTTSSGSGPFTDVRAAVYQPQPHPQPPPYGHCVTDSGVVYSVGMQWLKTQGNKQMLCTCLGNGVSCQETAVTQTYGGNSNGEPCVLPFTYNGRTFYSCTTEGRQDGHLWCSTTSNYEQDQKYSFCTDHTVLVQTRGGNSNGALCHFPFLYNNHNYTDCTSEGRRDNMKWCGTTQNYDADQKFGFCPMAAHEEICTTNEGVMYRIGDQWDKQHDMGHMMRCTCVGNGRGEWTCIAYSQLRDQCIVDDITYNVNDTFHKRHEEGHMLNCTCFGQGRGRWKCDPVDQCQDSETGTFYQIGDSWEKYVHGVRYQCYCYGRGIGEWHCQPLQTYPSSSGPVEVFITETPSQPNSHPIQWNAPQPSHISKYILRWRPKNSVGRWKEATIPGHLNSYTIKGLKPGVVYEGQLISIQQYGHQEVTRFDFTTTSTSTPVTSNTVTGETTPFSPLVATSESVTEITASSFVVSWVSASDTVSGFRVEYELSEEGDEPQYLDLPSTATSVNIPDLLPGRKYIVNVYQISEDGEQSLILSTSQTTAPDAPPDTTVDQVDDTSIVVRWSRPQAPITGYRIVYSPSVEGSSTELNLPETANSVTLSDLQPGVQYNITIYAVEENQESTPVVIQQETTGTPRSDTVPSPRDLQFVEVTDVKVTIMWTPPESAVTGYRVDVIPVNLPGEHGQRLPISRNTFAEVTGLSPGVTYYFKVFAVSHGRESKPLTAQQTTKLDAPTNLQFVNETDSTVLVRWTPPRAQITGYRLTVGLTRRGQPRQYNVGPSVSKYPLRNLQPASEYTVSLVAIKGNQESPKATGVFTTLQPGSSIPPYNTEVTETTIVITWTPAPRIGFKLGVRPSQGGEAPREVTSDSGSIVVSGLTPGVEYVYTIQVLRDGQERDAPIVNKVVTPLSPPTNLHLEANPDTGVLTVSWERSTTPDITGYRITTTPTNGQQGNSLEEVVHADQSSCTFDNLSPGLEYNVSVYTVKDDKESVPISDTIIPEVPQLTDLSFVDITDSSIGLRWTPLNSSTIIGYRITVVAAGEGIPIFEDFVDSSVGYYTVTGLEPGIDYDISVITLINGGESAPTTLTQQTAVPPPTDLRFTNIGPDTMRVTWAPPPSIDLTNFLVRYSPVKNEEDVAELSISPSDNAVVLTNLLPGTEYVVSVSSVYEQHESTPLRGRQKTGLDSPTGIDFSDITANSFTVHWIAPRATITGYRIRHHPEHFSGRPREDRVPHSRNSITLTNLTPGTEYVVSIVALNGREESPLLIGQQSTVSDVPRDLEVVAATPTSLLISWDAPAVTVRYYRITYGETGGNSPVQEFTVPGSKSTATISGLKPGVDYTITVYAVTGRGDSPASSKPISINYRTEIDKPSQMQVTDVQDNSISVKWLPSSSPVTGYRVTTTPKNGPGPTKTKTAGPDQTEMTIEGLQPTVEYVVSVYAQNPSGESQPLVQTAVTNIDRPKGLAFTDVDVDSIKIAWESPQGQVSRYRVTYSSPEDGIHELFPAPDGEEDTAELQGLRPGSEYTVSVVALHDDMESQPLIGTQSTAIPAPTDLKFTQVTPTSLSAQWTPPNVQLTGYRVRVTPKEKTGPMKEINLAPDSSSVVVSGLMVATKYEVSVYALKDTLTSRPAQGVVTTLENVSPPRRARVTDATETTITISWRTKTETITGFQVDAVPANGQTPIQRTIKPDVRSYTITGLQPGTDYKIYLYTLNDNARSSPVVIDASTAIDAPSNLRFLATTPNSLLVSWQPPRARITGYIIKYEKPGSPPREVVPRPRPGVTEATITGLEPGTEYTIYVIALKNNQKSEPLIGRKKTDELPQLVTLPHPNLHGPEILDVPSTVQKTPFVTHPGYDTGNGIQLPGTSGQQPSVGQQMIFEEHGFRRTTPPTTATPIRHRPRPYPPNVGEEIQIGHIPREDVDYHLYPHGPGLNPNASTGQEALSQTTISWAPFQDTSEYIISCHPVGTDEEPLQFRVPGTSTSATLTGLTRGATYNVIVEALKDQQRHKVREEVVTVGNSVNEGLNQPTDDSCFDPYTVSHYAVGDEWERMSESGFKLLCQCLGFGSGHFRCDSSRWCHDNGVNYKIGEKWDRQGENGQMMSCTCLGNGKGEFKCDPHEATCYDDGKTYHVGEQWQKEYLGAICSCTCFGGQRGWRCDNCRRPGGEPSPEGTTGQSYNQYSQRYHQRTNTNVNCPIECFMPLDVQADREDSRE", "UniProt P02671": "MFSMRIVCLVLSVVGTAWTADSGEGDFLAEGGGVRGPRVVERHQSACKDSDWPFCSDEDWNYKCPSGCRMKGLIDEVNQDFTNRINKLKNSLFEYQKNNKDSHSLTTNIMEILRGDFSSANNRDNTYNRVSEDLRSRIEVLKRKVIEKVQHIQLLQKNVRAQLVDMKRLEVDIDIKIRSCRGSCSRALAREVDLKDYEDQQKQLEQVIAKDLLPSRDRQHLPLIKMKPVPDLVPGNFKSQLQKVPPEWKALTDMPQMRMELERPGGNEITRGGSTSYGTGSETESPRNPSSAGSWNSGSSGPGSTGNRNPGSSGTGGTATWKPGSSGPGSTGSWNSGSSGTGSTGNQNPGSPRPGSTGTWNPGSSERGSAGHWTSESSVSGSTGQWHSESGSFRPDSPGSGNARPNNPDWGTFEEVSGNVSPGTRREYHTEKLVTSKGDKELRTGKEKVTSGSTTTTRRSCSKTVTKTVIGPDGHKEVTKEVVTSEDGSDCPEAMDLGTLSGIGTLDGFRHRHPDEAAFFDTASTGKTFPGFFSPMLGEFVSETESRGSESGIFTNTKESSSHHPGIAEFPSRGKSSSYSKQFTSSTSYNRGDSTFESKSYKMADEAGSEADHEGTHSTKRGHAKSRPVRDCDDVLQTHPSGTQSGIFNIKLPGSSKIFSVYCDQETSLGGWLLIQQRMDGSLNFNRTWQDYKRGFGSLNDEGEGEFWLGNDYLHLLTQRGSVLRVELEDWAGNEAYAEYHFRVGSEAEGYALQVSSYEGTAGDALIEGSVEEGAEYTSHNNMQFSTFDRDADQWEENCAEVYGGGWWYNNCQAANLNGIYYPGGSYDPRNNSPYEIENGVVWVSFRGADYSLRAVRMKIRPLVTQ", "UniProt P0C0L5": "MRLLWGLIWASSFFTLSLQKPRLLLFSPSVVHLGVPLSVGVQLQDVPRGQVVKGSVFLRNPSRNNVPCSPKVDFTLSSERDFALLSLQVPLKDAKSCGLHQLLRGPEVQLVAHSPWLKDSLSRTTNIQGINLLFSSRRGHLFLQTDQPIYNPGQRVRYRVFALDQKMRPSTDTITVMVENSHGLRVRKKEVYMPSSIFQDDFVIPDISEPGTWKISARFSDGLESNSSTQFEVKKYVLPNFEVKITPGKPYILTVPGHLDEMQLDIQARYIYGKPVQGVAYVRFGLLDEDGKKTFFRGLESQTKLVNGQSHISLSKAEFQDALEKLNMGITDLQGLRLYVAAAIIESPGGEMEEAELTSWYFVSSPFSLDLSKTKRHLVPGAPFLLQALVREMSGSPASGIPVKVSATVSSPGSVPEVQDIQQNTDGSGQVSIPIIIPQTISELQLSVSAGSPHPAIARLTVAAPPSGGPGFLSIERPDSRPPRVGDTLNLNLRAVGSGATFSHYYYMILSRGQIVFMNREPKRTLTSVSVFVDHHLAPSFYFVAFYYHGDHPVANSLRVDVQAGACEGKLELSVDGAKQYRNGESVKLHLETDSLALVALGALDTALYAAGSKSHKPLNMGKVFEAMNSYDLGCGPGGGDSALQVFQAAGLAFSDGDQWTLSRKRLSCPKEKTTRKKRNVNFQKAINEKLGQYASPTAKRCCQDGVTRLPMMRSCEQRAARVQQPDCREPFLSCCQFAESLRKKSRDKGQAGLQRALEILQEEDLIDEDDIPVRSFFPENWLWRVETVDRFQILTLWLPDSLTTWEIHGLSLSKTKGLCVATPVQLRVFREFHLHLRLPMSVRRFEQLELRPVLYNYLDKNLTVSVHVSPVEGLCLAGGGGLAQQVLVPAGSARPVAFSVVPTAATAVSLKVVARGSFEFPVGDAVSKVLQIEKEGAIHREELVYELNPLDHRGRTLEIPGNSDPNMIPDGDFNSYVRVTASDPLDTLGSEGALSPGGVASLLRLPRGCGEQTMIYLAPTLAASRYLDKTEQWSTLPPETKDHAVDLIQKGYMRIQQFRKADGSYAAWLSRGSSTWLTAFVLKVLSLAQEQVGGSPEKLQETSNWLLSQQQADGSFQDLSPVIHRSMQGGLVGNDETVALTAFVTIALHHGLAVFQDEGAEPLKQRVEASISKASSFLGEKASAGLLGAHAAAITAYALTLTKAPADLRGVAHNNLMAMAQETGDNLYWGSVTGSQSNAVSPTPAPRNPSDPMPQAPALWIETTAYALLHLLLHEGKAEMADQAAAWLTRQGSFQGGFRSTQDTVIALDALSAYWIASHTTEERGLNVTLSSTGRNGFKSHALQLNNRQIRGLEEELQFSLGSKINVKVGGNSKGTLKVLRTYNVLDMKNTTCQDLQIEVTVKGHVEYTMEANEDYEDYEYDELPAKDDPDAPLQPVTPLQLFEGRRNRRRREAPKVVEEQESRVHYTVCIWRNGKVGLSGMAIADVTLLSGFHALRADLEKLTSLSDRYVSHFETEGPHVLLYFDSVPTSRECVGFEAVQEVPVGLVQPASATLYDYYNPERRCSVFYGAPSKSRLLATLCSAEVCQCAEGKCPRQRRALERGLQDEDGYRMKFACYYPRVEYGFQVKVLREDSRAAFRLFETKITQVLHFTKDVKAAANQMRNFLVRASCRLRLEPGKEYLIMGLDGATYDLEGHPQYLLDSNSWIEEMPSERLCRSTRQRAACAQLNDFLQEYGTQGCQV", "UniProt P07358": "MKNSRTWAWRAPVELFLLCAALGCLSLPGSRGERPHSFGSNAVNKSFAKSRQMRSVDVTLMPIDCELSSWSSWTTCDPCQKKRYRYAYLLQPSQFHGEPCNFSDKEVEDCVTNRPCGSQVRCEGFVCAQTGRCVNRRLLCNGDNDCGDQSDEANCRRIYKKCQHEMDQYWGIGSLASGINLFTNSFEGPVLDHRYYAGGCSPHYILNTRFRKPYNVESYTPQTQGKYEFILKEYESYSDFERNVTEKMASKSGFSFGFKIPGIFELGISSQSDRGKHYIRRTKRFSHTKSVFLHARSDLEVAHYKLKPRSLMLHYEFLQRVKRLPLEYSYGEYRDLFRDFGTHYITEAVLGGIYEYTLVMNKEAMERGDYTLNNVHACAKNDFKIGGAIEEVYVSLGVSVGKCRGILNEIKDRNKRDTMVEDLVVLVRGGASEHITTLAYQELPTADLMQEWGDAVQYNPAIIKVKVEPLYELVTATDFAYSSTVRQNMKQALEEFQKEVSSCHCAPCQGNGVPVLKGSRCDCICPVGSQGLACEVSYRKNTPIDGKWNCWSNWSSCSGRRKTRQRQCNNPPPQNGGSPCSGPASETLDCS", "UniProt P02675": "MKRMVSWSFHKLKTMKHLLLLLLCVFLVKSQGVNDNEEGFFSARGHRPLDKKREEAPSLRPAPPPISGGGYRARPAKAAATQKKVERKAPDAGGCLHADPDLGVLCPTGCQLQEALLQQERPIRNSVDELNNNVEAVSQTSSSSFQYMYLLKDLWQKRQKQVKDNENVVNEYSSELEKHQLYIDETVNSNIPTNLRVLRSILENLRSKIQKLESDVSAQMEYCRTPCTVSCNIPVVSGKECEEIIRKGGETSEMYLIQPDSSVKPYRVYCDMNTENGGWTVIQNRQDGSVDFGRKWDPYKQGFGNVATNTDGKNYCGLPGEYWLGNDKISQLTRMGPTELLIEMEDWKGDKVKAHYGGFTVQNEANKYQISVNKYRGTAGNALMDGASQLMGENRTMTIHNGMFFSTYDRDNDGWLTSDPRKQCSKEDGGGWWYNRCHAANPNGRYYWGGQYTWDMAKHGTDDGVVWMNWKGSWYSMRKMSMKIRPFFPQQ"},
  "source": "paper PMC12884786",
  "about": "“Evolution of Multivalent Aptamer Corona for High‐Throughput Multiplexed Detection of Multiple Cancers”",
  "test_in_all_cases": "SPR",
  "conditions_in_all_cases": "5 mM Mg2+; SPR (Biacore 8K, CM5 chip, protein immobilized): DPBS with 5 mM Mg2+, 25 C; aptamer 0-1000 nM; pH not stated; commercial protein; single-stranded …",
  "key": {"fibronectin (human)": {"target": "fibronectin (human) (UniProt P02751)"}, "[1]": {"target": "fibrinogen alpha chain (human) (UniProt P02671)"}, "complement C4 (human)": {"target": "complement C4 (human) (UniProt P0C0L5)"}, "[2]": {"target": "complement component C8 beta chain (human) (UniProt P07358)"}, "[3]": {"target": "fibrinogen beta chain (human) (UniProt P02675)"}},
  "note": "The exact form of at least one protein or probe is not confirmed.",
  "data": [
    {"sequence": "CAGCACCGTCAACTGAATCAGAAATTCGGCCGAATAGTCACGTACCGGGTGATGCGATGGAGATGT [LC1]", "values": [
      {"measurement": "binding result", "setting": "fibronectin (human)", "result": "binds"}
    ]},
    {"sequence": "CAGCACCGTCAACTGAATCGGCTAGGGACGAAGGGTCCGTTATAATGGTGATGCGATGGAGATGT [LC3]", "values": [
      {"measurement": "binding result", "setting": "[1]", "result": "binds"}
    ]},
    {"sequence": "CAGCACCGTCAACTGAATGGAGCCGTGGGTGGGTGGGTGGTTGCTGCCGTGATGCGATGGAGATGT [CRC8]", "values": [
      {"measurement": "binding result", "setting": "complement C4 (human)", "result": "binds"}
    ]},
    {"sequence": "CAGCACCGTCAACTGAATGTGGGTGGGCGGGTGGATGTTGACCTCCTGGTGATGCGATGGAGATGT [CRC9]", "values": [
      {"measurement": "binding result", "setting": "[2]", "result": "binds"}
    ]},
    {"sequence": "CAGCACCGTCAACTGAATTGGGAGGGGGGGTTGGGTAGTTGCGCGGACGTGATGCGATGGAGATGT [OV7]", "values": [
      {"measurement": "binding result", "setting": "[3]", "result": "binds"}
    ]}
  ]
}
